In all, about 300,000 compounds went through this assay and about 3,700 (1.2%) were called active. Inconclusive means that the source gave no clear call. Such entries were picked first, then a sample of the others. Calls follow the shape of the full dose curve; tested in HEK293 cells. A potency beside an inconclusive call is a rough fit, not a confirmed value.
Test: qHTS for Inhibitors of binding or entry into cells for Lassa Virus; also: nearly all actives have a fitted effect of over 50% in size
Conditions: Lassa virus pseudotype entry inhibition, cell reporter; activity change, negative = inhibition: at 37.9 µM (top of the series) unless noted
% is scaled to controls: 0 for no effect and ±100 for the full control effect; potency is read from the fitted curve at half-maximal effect.

Row | Compound | activity change, negative = inhibition | Potency
1 | CC(=O)N1N=C(c2ccncc2)CC1c1ccccc1O (centres undefined) | inactive: -10.9% | 
2 | COc1ccc(C(=O)Nc2cc(C(F)(F)F)ccc2-n2cnc3ccccc32)cc1 | inactive: 0.0623% | 
3 | CCOc1cc(/C=C2\COc3ccccc3C2=O)cc(Br)c1OCC(=O)N(C)C |  | inconclusive: 35.5 µM [inhibitor, single point]
4 | Cc1cccc(N2C(=O)c3cccc4c(N5CCCCC5)c([N+](=O)[O-])cc(c34)C2=O)c1C |  | inconclusive: 5.62 µM [inhibitor, single point]
5 | O=C(CSc1nnc(COc2ccccc2)n1Cc1ccco1)Nc1ccc2c(c1)OCCO2 |  | inconclusive: 14.6 µM [activator, partial curve, poor fit]
6 | CCn1nc(C)cc1C(=O)Sc1ccc(C)cc1 | inactive: 19.5% [at 46.1 µM] | 
7 | COc1ccccc1COC(=O)N/C=C/c1ccco1 |  | inconclusive: 4.47 µM [inhibitor, full curve, poor fit]
8 | O=c1c2ccc(Cl)cc2[nH]c(=S)n1CCC1=CCCCC1 |  | inconclusive: 7.08 µM [activator, partial curve, poor fit]
9 | O=C(Nc1cccc(F)c1)Nc1ccc2c(c1)CCC2 |  | inconclusive: 35.5 µM [activator, single point]
10 | COc1cc(C=O)ccc1OCc1ccc(Cl)nc1 |  | inconclusive: 35.5 µM [inhibitor, single point]
11 | CCOc1ccc(NC(=O)CC2C(=O)N(c3ccccc3)C(=O)N2C2CCCCC2)cc1 (centres undefined) |  | inconclusive: 25.1 µM [inhibitor, single point]
12 | CC1CCCCN1C(=O)COc1ccc(F)cc1 (centres undefined) | inactive: 10.2% | 
13 | Cc1nc(Nc2ccc(Cl)cc2)cc(-c2ccccc2)n1 |  | inconclusive: 35.5 µM [inhibitor, single point]
14 | O=C(CC1NCCNC1=O)OCc1ccccc1 (centres undefined) | inactive: -2.03% | 
15 | COc1cc(OC)cc(C(=O)Oc2c(CN3CCOCC3)cc(Cl)c3cccnc23)c1 |  | inconclusive: 35.5 µM [inhibitor, partial curve, poor fit]
16 | C=CCn1c(O)c(C(C)=NCc2cccnc2)c(=O)[nH]c1=O |  | inconclusive: 0.0052 µM [activator, full curve, poor fit]
17 | COc1ccc2c(c1)c(CC(=O)OCC(=O)N(C)C)c(C)n2C(=O)c1ccc(Cl)cc1 |  | inconclusive: 11.2 µM [inhibitor, partial curve, poor fit]
18 | COC(=O)c1c(NC(=O)CN2CCN(Cc3ccc4c(c3)OCO4)CC2)sc(C)c1C |  | inconclusive: 32.6 µM [inhibitor, single point]
19 | Cc1ccc(C)c2[nH]c(=O)c(CCNC(=O)c3ccc4c(c3)OCO4)cc12 |  | inconclusive: 4.61 µM [activator, partial curve, poor fit]
20 | Cc1ccc2nc(N3CCN(Cc4ccc(F)cc4)C3=O)c(C)cc2c1 |  | inconclusive: 2.06 µM [activator, partial curve]
21 | Cc1ccc(-c2cn3nc(C)c(C)nc3n2)cc1 |  | inconclusive: 0.282 µM [inhibitor, full curve, poor fit]
22 | CCOc1ccc2nc(SC3CC(=O)N(c4ccc(OC)cc4)C3=O)sc2c1 (centres undefined) | inactive: -0.274% | 
23 | FC(F)Oc1ccc(C2N=C(c3ccccc3)NO2)cc1 (centres undefined) |  | inconclusive: 20 µM [inhibitor, single point]

Row | Compound | activity change, negative = inhibition | Potency
24 | O=C1c2ccc(Oc3ccc([N+](=O)[O-])cc3)cc2C(=O)N1CCCO | inactive: 7.91% [at 46.1 µM] | 
25 | Cc1ccc(S(=O)(=O)N(C)C)cc1NC(=O)CN1C(=O)NC2(CCCCCC2)C1=O | inactive: 5.92% | 
26 | O=C(CSc1nnc(Cc2cccs2)n1CCc1ccccc1)N1CCCc2ccccc21 |  | inconclusive: 29.1 µM [inhibitor, single point]
27 | COc1ccc(NC(=O)/C(C#N)=C/c2cc(C)n(-c3ccc(F)cc3)c2C)cc1 | inactive: 11.5% [at 46.1 µM] | 
28 | CC(C)c1ccccc1NC(=O)C1CN(S(=O)(=O)c2ccccc2)CCN1S(=O)(=O)c1ccccc1 (centres undefined) |  | inconclusive: 8.91 µM [inhibitor, partial curve, poor fit]
29 | CCOc1ccc(Nc2ncnc3c2cnn3Cc2ccccc2)cc1 |  | inconclusive: 8.2 µM [inhibitor, partial curve, poor fit]
30 | CCc1ccc(NC(=O)C(C)n2nnc3sc(-c4ccccc4)cc3c2=O)cc1 (centres undefined) | inactive: -0.281% [at 46.1 µM] | 
31 | CCN(CC(=O)Nc1c(F)cccc1F)C(=O)CSc1nc2ccccc2o1 | inactive: -14% | 
32 | O=C(c1cccs1)N1CCCN(c2ncnc3scc(-c4ccccc4)c23)CC1 |  | inconclusive: 15.8 µM [inhibitor, partial curve, poor fit]
33 | Cn1c(S(=O)(=O)c2ccc([N+](=O)[O-])cc2)nc(Br)c1Br | inactive: -0.688% | 
34 | CCOc1ccc(C2=NC(c3ccc(OC)cc3)=Nc3ccc(Cl)cc3N2)cc1 |  | inconclusive: 17.8 µM [activator, partial curve, poor fit]
35 | C=CCC(CC=C)(CNC(=O)C(=O)Nc1cc(C)ccc1OC)c1ccc(OC)c(OC)c1 |  | inconclusive: 35.5 µM [inhibitor, single point]
36 | O=C(CSc1ccc(-c2ccco2)nn1)Nc1ccc(F)cc1F |  | inconclusive: 1.58 µM [activator, partial curve, poor fit]
37 | O=S(=O)(c1ccc(F)cc1)N1CCN(S(=O)(=O)c2cccs2)CC1 |  | inconclusive: 1.26 µM [activator, single point]
38 | CCOCCCNC(=S)NCCCNc1nc2c(C)c(C)ccc2cc1C#N |  | inconclusive: 35.5 µM [inhibitor, single point]
39 | Cc1cc(NC(=O)c2cc(F)c(F)cc2Cl)no1 | inactive: -5.49% | 
40 | CCC(=O)Nc1ccccc1-c1nc2ccccc2n(CC(=O)c2ccc(C)cc2)c1=O | inactive: 5.03% [at 46.1 µM] | 
41 | COc1ccc(CN(C)CC(=O)Nc2cc(OC)c([N+](=O)[O-])cc2C)c(OC)c1 |  | inconclusive: 8.91 µM [inhibitor, partial curve, poor fit]
42 | Cc1ccc(N2CCN(C(=O)c3cnc(N4CCCCC4)c4ccccc34)CC2)c(C)c1 |  | inconclusive: 1.78 µM [inhibitor, full curve]
43 | CCCN(CCC)C(=O)c1cc2c(=O)[nH]c3ccc(C)cc3c2s1 |  | inconclusive: 23.1 µM [inhibitor, partial curve]
44 | CCOc1ccccc1NC(=O)c1ccccc1N(C)S(=O)(=O)c1ccc(C)cc1 |  | inconclusive: 25.1 µM [inhibitor, single point]
45 | Cc1ccc2c(c1)c(Sc1ccccc1)c(CC(=O)O)n2C | inactive: 6.29% | 
46 | O=C(NC1CCN(CCc2c[nH]c3ccccc23)CC1)c1ccccc1 | inactive: -5.65% [at 46.1 µM] | 

Of the compounds above, these have an NH in an aromatic ring.
Row | Compound | activity change, negative = inhibition | Potency
8 | O=c1c2ccc(Cl)cc2[nH]c(=S)n1CCC1=CCCCC1 |  | inconclusive: 7.08 µM [activator, partial curve, poor fit]
16 | C=CCn1c(O)c(C(C)=NCc2cccnc2)c(=O)[nH]c1=O |  | inconclusive: 0.0052 µM [activator, full curve, poor fit]
19 | Cc1ccc(C)c2[nH]c(=O)c(CCNC(=O)c3ccc4c(c3)OCO4)cc12 |  | inconclusive: 4.61 µM [activator, partial curve, poor fit]
43 | CCCN(CCC)C(=O)c1cc2c(=O)[nH]c3ccc(C)cc3c2s1 |  | inconclusive: 23.1 µM [inhibitor, partial curve]
46 | O=C(NC1CCN(CCc2c[nH]c3ccccc23)CC1)c1ccccc1 | inactive: -5.65% [at 46.1 µM] | 

Later entries.

Row | Compound | activity change, negative = inhibition | Potency
47 | COc1ccc(C)cc1NC1=C(Cl)C(=O)N(C2CCCCC2)C1=O | inactive: -7.96% | 
48 | COc1cccc(OC)c1C(=O)Nc1ccc2c(c1)Cc1ccccc1-2 | inactive: -11.5% | 
49 | O=C(Nc1ccc(NC(=O)c2sc3ccccc3c2Cl)cc1Cl)c1ccco1 | inactive: 25.2% [at 14.3 µM] | 
50 | Cc1ccc(NC(=O)O/N=C/c2ccc(N(C)C)cc2)cc1 |  | inconclusive: 35.5 µM [inhibitor, single point]
51 | CC(C)CCNC(=O)c1cc2cc(S(=O)(=O)N3CCCCC3)ccc2n1C |  | inconclusive: 0.631 µM [inhibitor, full curve]
52 | CSc1ccc(CN(C)C(=O)COc2ccc(C(=O)c3ccccc3)cc2)cc1 |  | inconclusive: 35.5 µM [inhibitor, single point]
53 | O=C(Nc1ccc(F)c(Cl)c1)N1CC=C(c2c[nH]c3ccccc23)CC1 | inactive: -22.5% [at 46.1 µM] | 
54 | Cc1ccc(CNC(=O)Cc2cn(C)c3ccccc23)cc1 |  | inconclusive: 5.62 µM [inhibitor, single point]
55 | O=C(Cc1ccccc1)Nc1ccc2oc(=O)ccc2c1 |  | inconclusive: 22.4 µM [activator, single point]
56 | Cc1nn(Cc2c(F)cccc2Cl)c(=O)c2ccccc12 | inactive: 4.99% | 
57 | COCCCN1C(=O)c2[nH]nc(-c3ccccc3O)c2C1c1ccc(Cl)cc1 (centres undefined) |  | inconclusive: 14.6 µM [inhibitor, single point]
58 | Cc1ccc(NC(=O)COC(=O)Cn2nc(-c3ccc(F)cc3)oc2=O)cc1C |  | inconclusive: 0.126 µM [inhibitor, full curve, poor fit]
59 | CC(C)(C)c1ccc(S(=O)(=O)N2CC(C(=O)O)Oc3ccc(Cl)cc32)cc1 (centres undefined) |  | inconclusive: 1.58 µM [activator, partial curve, poor fit]
60 | CC(=O)N1c2ccccc2S(=O)(=O)c2c1ccc1ccccc21 | inactive: 5.38% | 
61 | Cc1nn2c(C)c(C(=O)NCc3ccco3)cnc2c1-c1ccccc1 |  | inconclusive: 0.562 µM [inhibitor, full curve, poor fit]
62 | COc1cc(NS(=O)(=O)c2ccc(NC(=S)NC(=O)c3ccccc3)cc2)nc(OC)n1 |  | inconclusive: 2 µM [activator, full curve]
63 | COc1cc(/C=N/Nc2snc(SC)c2C#N)ccc1O |  | inconclusive: 7.3 µM [inhibitor, partial curve, poor fit]
64 | CCOc1cc(C(=O)Nc2ccc(NC(C)=O)cc2)ccc1OCC(=O)N1CCCCC1 |  | inconclusive: 10 µM [inhibitor, partial curve, poor fit]
65 | COc1ccc(C(=O)NC(=S)N2CCN(c3ccccc3OC)CC2)cc1 | inactive: -0.709% [at 46.1 µM] | 
66 | O=S(=O)(c1ccccc1)n1c(C(O)c2ccccn2)cc2ccccc21 (centres undefined) |  | inconclusive: 10 µM [activator, partial curve]
67 | CCC1CCCCN1S(=O)(=O)c1ccc(NC(=O)c2cccs2)cc1 (centres undefined) |  | active: 5.17 µM
68 | CNC(=O)/C(=C\c1cccc(Oc2ccccc2)c1)NC(=O)c1ccccc1 |  | inconclusive: 0.282 µM [activator, single point]
69 | O=C(Nc1ccc2c(c1)N(Cc1ccccc1)C(=O)c1ccccc1S2)NC1CC1 |  | inconclusive: 5.17 µM [inhibitor, full curve, poor fit]

— PubChem BioAssay AID540256 (National Center for Advancing Translational Sciences (NCATS), 2011)
